In the supplement of paper PMC10849652:
The other results are listed elsewhere or left out.

Amino acid sequences for entries named in this document (tags omitted). A change or cut given only in a name is not applied to a line headed by its entry.
UniProt P29218: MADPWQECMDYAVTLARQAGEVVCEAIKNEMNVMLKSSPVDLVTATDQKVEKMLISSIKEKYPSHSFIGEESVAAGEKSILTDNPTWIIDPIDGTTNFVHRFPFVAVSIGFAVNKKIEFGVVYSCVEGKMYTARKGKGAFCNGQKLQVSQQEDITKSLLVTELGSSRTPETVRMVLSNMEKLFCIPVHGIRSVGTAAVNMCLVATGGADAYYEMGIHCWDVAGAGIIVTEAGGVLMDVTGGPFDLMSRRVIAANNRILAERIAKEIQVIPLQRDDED
UniProt Q13907: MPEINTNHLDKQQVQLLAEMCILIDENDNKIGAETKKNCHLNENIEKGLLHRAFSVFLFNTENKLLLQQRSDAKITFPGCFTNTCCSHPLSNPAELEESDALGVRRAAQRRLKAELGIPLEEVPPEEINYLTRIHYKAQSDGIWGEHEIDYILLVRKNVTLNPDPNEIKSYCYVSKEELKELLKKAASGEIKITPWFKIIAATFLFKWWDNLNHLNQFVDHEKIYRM
UniProt P11717, whole entry, looked up: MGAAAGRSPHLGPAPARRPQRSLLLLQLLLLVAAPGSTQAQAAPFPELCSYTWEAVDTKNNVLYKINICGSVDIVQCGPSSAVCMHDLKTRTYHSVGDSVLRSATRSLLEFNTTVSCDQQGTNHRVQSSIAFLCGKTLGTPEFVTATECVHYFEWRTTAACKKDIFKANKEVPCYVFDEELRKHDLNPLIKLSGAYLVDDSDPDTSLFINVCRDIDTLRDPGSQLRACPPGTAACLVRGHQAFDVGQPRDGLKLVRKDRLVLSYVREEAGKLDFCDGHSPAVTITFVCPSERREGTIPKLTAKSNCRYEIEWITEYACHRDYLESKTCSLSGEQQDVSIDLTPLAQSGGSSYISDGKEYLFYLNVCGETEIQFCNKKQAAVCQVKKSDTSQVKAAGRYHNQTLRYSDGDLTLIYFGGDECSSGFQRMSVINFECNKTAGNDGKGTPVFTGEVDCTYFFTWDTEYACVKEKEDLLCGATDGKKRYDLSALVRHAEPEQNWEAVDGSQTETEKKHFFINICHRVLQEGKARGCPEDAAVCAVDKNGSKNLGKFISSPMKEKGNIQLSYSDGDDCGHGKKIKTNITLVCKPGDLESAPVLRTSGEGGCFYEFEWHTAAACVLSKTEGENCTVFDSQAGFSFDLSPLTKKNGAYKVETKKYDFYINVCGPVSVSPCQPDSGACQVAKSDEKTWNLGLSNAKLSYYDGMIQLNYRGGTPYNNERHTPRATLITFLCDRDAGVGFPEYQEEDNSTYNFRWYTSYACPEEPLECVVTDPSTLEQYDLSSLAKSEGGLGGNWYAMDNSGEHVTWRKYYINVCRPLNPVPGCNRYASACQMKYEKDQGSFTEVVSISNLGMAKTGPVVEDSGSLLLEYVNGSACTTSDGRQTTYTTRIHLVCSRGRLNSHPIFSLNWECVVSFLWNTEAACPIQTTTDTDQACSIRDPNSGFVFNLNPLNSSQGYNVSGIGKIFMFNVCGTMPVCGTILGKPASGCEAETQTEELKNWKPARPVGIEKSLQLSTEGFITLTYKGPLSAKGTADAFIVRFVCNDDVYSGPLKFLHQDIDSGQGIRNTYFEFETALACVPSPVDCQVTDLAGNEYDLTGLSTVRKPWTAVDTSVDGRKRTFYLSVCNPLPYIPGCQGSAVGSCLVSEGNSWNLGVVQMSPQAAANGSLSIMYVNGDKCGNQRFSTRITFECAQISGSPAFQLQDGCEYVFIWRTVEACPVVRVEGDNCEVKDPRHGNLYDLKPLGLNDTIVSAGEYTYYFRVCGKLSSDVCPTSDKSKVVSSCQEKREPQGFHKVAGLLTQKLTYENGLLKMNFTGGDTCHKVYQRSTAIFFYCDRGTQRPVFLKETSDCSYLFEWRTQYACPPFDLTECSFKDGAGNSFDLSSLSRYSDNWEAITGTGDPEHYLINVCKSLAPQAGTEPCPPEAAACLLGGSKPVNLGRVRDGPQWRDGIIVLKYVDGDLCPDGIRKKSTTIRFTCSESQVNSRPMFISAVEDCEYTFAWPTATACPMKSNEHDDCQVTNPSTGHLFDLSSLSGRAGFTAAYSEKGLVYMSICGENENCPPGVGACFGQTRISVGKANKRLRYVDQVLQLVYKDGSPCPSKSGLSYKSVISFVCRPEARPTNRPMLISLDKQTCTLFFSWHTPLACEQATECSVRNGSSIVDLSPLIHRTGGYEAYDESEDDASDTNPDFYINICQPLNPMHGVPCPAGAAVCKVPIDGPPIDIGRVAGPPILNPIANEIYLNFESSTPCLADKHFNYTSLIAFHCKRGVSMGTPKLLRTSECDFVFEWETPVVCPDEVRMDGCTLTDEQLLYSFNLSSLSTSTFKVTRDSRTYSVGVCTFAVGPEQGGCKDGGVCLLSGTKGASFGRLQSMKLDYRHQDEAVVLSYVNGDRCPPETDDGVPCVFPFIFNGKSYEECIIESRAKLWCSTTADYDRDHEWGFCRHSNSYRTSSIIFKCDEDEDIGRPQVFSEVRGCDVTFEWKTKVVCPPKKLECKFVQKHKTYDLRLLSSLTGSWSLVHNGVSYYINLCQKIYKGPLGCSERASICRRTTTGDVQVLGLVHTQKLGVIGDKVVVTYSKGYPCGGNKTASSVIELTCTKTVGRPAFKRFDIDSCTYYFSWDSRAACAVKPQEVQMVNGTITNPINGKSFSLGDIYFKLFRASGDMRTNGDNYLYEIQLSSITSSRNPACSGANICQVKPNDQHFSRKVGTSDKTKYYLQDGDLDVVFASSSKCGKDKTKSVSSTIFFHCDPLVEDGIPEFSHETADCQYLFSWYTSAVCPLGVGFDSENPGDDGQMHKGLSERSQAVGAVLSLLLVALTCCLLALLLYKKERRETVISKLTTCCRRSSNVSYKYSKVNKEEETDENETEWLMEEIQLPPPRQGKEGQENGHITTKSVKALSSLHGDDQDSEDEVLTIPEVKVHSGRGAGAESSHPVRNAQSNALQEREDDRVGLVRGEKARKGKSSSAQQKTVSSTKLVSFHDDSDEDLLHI
UniProt Q9NVM9, whole entry, looked up: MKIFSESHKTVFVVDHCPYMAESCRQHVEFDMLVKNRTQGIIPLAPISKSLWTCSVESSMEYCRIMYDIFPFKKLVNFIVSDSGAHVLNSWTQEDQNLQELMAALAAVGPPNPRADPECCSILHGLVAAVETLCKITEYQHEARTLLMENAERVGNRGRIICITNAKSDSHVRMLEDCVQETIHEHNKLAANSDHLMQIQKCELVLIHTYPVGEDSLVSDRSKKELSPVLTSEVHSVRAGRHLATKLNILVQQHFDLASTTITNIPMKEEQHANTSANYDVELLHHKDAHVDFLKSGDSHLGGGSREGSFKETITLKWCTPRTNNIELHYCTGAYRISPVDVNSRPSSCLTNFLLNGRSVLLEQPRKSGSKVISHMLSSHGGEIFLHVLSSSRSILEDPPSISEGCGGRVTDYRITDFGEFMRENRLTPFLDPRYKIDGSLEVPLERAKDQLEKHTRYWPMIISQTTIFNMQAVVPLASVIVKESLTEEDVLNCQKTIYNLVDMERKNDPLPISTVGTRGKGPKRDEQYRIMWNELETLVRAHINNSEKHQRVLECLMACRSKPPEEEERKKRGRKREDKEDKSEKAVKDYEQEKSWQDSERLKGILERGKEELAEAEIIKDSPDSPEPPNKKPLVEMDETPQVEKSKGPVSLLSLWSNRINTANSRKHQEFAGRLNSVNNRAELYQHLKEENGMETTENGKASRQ
UniProt Q9NXR8, whole entry, looked up: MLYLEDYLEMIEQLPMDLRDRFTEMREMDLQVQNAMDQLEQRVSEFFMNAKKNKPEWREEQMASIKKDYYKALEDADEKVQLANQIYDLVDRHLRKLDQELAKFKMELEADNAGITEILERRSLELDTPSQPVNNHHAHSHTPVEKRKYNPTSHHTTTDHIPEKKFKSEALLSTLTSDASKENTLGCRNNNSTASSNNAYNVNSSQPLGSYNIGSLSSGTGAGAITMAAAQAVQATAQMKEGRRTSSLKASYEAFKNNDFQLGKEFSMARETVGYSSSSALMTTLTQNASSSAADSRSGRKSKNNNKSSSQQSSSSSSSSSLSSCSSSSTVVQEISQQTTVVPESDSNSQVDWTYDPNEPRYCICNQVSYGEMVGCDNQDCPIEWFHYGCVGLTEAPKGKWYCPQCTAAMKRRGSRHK
UniProt P32019: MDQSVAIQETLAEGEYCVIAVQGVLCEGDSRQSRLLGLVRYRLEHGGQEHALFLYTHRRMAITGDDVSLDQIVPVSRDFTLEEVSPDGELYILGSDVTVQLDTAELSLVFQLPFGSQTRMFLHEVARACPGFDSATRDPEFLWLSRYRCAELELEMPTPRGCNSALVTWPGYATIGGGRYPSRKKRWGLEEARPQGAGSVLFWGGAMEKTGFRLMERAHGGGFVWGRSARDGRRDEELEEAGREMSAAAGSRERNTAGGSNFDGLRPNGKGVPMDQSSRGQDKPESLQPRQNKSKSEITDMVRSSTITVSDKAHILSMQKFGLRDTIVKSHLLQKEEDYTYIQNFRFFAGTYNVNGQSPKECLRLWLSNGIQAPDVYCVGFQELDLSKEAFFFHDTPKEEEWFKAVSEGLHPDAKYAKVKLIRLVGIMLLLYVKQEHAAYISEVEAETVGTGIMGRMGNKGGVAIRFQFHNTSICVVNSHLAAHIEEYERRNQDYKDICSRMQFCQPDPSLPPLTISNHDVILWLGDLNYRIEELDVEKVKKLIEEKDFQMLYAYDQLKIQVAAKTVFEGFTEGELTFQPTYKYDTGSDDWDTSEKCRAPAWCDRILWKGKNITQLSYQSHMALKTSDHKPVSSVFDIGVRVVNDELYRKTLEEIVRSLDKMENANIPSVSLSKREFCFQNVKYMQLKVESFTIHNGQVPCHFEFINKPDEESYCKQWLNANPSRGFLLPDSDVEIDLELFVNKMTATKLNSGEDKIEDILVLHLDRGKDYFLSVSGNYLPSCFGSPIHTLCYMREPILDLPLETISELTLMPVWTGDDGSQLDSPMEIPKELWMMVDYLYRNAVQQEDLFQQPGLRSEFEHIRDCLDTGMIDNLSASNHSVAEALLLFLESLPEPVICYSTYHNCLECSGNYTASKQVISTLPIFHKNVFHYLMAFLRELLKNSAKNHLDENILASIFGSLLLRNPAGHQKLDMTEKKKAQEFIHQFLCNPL
UniProt Q13478: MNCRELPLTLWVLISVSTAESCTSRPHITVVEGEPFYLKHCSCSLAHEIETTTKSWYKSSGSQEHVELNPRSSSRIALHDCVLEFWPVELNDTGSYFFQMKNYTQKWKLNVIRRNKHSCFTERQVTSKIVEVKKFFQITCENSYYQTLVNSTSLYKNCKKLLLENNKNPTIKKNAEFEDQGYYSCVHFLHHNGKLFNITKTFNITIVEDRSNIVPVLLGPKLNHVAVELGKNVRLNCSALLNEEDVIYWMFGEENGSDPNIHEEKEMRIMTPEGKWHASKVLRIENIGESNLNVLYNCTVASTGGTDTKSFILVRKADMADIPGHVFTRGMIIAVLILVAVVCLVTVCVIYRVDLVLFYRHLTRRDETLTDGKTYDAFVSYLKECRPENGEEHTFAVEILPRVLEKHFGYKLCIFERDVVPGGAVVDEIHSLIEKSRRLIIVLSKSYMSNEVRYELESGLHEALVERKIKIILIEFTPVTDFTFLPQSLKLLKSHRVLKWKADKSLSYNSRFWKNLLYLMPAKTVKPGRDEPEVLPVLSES

What was measured:
Test in all cases: log2 fold change, soluble protein after heating vs DMSO (PISA); higher = thermal stabilisation; K562 lysate, 10 uM; active = over 0.2 and 3.5 SD of the protein, either way, in both replicates (recomputed)
alvocidib = compound: CN1CC[C@H](c2c(O)cc(O)c3c(=O)cc(-c4ccccc4Cl)oc23)[C@H](O)C1 [alvocidib]
In short: (§1)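 Soluble protein was defined as the supernatant remaining after 21,000xg for 90 min, following pooling of heated aliquots and adjustment to 0.5% NP-40 at 4°C. Before that, crude K562 extract at 1 mg/mL protein in PBS pH 7.4 with 1 mM MgCl2 was treated with 10 μM compound for 30 min and heated for 3 min across 48°C-58°C. Quantification used TMTpro 16plex LC-MS/MS with channel sums equalised, and values are log-two fold changes in thermal stability relative to solvent controls from duplicates.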

Tubastatin A = compound: CN1CCc2c(c3ccccc3n2Cc2ccc(C(=O)NO)cc2)C1 [Tubastatin A]
In short: as §1

[1] = compound: CNC(=O)C1=CC=CC=C1NC2=NC(=NC=C2Cl)NC3=C(C=C(C=C3)N4CCOCC4)OC
In short: as §1

defactinib = compound: CNC(=O)c1ccc(Nc2ncc(C(F)(F)F)c(NCc3nccnc3N(C)S(C)(=O)=O)n2)cc1 [defactinib]
In short: as §1

[2] = compound: CNc1nc(-c2ccc3c(N)n[nH]c3c2)cc(N2C[C@@H](C(=O)NC3CCCCC3)CC[C@H]2C)n1
In short: as §1

encorafenib = compound: COC(=O)N[C@@H](C)CNc1nccc(-c2cn(C(C)C)nc2-c2cc(Cl)cc(NS(C)(=O)=O)c2F)n1 [encorafenib]
In short: as §1

[3] = compound: COC(=O)[C@H](CCSC)NC(=O)C1=C(C=C(C=C1)NC[C@H](CS)N)C2=CC=CC=C2
In short: as §1

alisertib = compound: COc1cc(Nc2ncc3c(n2)-c2ccc(Cl)cc2C(c2c(F)cccc2OC)=NC3)ccc1C(=O)O [alisertib]
In short: as §1

[4] = compound: COc1cc2nc(-c3cc(F)ccc3O)nc(N[C@@H]3CNC[C@H]3C(C)(C)O)c2cc1OC
In short: as §1

gefitinib = compound: COc1cc2ncnc(Nc3ccc(F)c(Cl)c3)c2cc1OCCCN1CCOCC1 [gefitinib]
In short: as §1

lapatinib = compound: CS(=O)(=O)CCNCc1ccc(-c2ccc3ncnc(Nc4ccc(OCc5cccc(F)c5)c(Cl)c4)c3c2)o1 [lapatinib]
In short: as §1

pictilisib = compound: CS(=O)(=O)N1CCN(Cc2cc3nc(-c4cccc5[nH]ncc45)nc(N4CCOCC4)c3s2)CC1 [pictilisib]
In short: as §1

crizotinib = compound: C[C@@H](Oc1cc(-c2cnn(C3CCNCC3)c2)cnc1N)c1c(Cl)ccc(F)c1Cl [crizotinib]
In short: as §1

[5] = compound: C[C@H](C1=CC=C(C=C1)C(=O)NC2=C3C=CNC3=NC=C2)N
In short: as §1

duvelisib = compound: C[C@H](Nc1ncnc2nc[nH]c12)c1cc2cccc(Cl)c2c(=O)n1-c1ccccc1 [duvelisib]
In short: as §1

gandotinib = compound: Cc1cc(Nc2cc(CN3CCOCC3)c3nc(C)c(Cc4ccc(Cl)cc4F)n3n2)n[nH]1 [gandotinib]
In short: as §1

tozasertib = compound: Cc1cc(Nc2cc(N3CCN(C)CC3)nc(Sc3ccc(NC(=O)C4CC4)cc3)n2)n[nH]1 [tozasertib]
In short: as §1

doramapimod = compound: Cc1ccc(-n2nc(C(C)(C)C)cc2NC(=O)Nc2ccc(OCCN3CCOCC3)c3ccccc23)cc1 [doramapimod]
In short: as §1

bafetinib = compound: Cc1ccc(NC(=O)c2ccc(CN3CC[C@H](N(C)C)C3)c(C(F)(F)F)c2)cc1Nc1nccc(-c2cncnc2)n1 [bafetinib]
In short: as §1

[6] = compound: Cc1cccc(CC(=O)N2CCc3c2ccc(-c2cn(C)c4ncnc(N)c24)c3F)n1
In short: as §1

Measured: log2 fold change

IDE, A0A3B3ISG5
inactive: alvocidib 0.027 | Tubastatin A 0.015 | [1] -0.005 | defactinib 0.004 | [2] -0.023 | encorafenib 0.005 | [3] 0.018 | alisertib -0.007 | [4] 0.001 | gefitinib -0.029 | lapatinib -0.009 | pictilisib -0.018 | crizotinib 0.009 | [5] 0.02 | duvelisib 0.02 | gandotinib -0.024 | tozasertib 0 | doramapimod -0.016 | bafetinib -0.017 | [6] -0.016

IMPA1 isoform 3 (UniProt P29218)
inactive: alvocidib 0.023 | Tubastatin A 0.031 | [1] -0.011 | defactinib -0.003 | [2] -0.001 | encorafenib -0.015 | [3] -0.039 | alisertib -0.009 | [4] 0.017 | gefitinib 0.021 | lapatinib -0.011 | pictilisib -0.021 | crizotinib 0.006 | [5] 0.033 | duvelisib 0.048 | gandotinib -0.041 | tozasertib -0.007 | doramapimod 0.035 | bafetinib 0.051 | [6] -0.07

IDI1 (UniProt Q13907)
inactive: alvocidib -0.012 | Tubastatin A 0.035 | [1] -0.016 | defactinib -0.001 | [2] 0.004 | encorafenib -0.011 | [3] -0.025 | alisertib -0.003 | [4] 0.026 | gefitinib -0.058 | lapatinib 0.042 | pictilisib -0.029 | crizotinib 0 | [5] -0.149 | duvelisib 0.036 | gandotinib 0.059 | tozasertib -0.003 | doramapimod 0.081 | bafetinib -0.016 | [6] 0

IGF2R (UniProt P11717)
inactive: alvocidib -0.053 | Tubastatin A 0.01 | [1] -0.001 | defactinib 0.004 | [2] -0.029 | encorafenib 0.03 | [3] -0.062 | alisertib -0.008 | [4] 0.01 | gefitinib 0.039 | lapatinib 0.007 | pictilisib -0.014 | crizotinib 0.042 | [5] -0.043 | duvelisib 0.003 | gandotinib 0.045 | tozasertib 0.008 | doramapimod -0.008 | bafetinib 0.065 | [6] 0.029

INTS13 (UniProt Q9NVM9)
inactive: alvocidib -0.004 | Tubastatin A -0.06 | [1] 0.013 | defactinib -0.005 | [2] -0.015 | encorafenib -0.009 | [3] 0.139 | alisertib 0.048 | [4] -0.016 | gefitinib 0.041 | lapatinib 0.004 | pictilisib -0.008 | crizotinib 0.004 | [5] 0.021 | duvelisib -0.006 | gandotinib -0.019 | tozasertib -0.005 | doramapimod -0.02 | bafetinib 0.003 | [6] 0.02

ING3 (UniProt Q9NXR8)
inactive: alvocidib 0.04 | Tubastatin A -0.016 | [1] 0.019 | defactinib 0.035 | [2] 0.052 | encorafenib 0.12 | [3] 0.046 | alisertib -0.072 | [4] 0.032 | gefitinib -0.004 | lapatinib -0.061 | pictilisib -0.024 | crizotinib -0.032 | [5] 0.003 | duvelisib 0.09 | gandotinib -0.037 | tozasertib 0.022 | doramapimod -0.029 | bafetinib -0.091 | [6] -0.014

INPP5B (UniProt P32019)
inactive: alvocidib -0.027 | Tubastatin A -0.066 | [1] 0.017 | defactinib -0.006 | [2] -0.012 | encorafenib 0.007 | [3] 0.001 | alisertib -0.035 | [4] -0.013 | gefitinib -0.013 | lapatinib 0.017 | pictilisib -0.011 | crizotinib -0.007 | [5] -0.118 | duvelisib 0.041 | gandotinib 0.042 | tozasertib -0.028 | doramapimod 0.019 | bafetinib -0.083 | [6] 0.137

IL18R1 (UniProt Q13478)
inactive: alvocidib -0.148 | Tubastatin A 0.008 | [1] -0.106 | defactinib -0.322 | [2] 0.056 | encorafenib 0.116 | [3] 0.142 | alisertib -0.098 | [4] -0.014 | gefitinib -0.039 | lapatinib -0.112 | pictilisib 0.207 | crizotinib -0.076 | [5] -0.116 | duvelisib -0.049 | gandotinib 0.092 | tozasertib 0.063 | doramapimod -0.111 | bafetinib -0.031 | [6] 0.045
